Usually Papp A→B stands for the apparent permeability from the apical to the basolateral side of a cell layer. Low values mean poor permeation, high ones ready permeation. One may read the Papp B→A as how fast a substance crosses the layer from the basolateral side. For orientation: efflux ratio means a quotient of directional permeabilities that is used to spot active efflux.

This data set is described as follows: Caco-2 bidirectional transport permeability. It is filed as in vitro ADME. The following applies: human. How it is done:
The passage number of cells used in this study was 39. Non-specific binding to the device surfaces and the aqueous solubility of test compounds were tested before the transport experiment. […] The integrity of the monolayer was estimated by measuring transepithelial electrical resistance (TEER). Only the monolayers with TEER over 150 Ω were used for the studies. […] The bidirectional transport studies were initiated by adding amdizalisib to either the apical (A) or basolateral (B) side of the Transwell® Insert.
Background: Passage across Caco-2 layers is used to estimate intestinal permeability.

For `CC(C)NCC(O)COc1ccc(CC(N)=O)cc1` (stereo not drawn) [Atenolol, reference compound], the Papp A→B at 60 min, 10 µM was less than 4.31 nm/s; the Papp B→A at 60 min, 10 µM amounted to 3.2 nm/s; the efflux ratio at 60 min, 10 µM is greater than 0.742.
